Biological target: GABA-A receptor; anion channel
Test: Inhibition of binding of tert-butyl bicyclophosphorothionate ([35 S]TBPS) at Gamma-aminobutyric acid A receptor from rat whole brain membranes
Assay type: cell membranes, Membrane

`CC(=O)[C@H]1CC[C@H]2[C@@H]3CC[C@H]4C[C@H](O)CC[C@]4(C)[C@H]3C(=O)C[C@]12C` [ALFAXALONE] was tested. Which IC50 did it give?
Its IC50 is 0.423 µM.

From ChEMBL document CHEMBL1133501, “Conformationally constrained anesthetic steroids that modulate GABA(A) receptors” (J Med Chem, 2000)
